For some of these results: At least one compound was matched to its structure with a doubt left. Some results were stated once for a whole list of compounds, not compound by compound.
Each molecule was assayed against P-glycoprotein (Homo sapiens, UniProt P08183) (assay: P-glycoprotein efflux substrate). Details: not given.
Assay type: in vitro ADME

By UniProt entry, the sequences of proteins in these tests, tags left out.
UniProt P08183, whole entry: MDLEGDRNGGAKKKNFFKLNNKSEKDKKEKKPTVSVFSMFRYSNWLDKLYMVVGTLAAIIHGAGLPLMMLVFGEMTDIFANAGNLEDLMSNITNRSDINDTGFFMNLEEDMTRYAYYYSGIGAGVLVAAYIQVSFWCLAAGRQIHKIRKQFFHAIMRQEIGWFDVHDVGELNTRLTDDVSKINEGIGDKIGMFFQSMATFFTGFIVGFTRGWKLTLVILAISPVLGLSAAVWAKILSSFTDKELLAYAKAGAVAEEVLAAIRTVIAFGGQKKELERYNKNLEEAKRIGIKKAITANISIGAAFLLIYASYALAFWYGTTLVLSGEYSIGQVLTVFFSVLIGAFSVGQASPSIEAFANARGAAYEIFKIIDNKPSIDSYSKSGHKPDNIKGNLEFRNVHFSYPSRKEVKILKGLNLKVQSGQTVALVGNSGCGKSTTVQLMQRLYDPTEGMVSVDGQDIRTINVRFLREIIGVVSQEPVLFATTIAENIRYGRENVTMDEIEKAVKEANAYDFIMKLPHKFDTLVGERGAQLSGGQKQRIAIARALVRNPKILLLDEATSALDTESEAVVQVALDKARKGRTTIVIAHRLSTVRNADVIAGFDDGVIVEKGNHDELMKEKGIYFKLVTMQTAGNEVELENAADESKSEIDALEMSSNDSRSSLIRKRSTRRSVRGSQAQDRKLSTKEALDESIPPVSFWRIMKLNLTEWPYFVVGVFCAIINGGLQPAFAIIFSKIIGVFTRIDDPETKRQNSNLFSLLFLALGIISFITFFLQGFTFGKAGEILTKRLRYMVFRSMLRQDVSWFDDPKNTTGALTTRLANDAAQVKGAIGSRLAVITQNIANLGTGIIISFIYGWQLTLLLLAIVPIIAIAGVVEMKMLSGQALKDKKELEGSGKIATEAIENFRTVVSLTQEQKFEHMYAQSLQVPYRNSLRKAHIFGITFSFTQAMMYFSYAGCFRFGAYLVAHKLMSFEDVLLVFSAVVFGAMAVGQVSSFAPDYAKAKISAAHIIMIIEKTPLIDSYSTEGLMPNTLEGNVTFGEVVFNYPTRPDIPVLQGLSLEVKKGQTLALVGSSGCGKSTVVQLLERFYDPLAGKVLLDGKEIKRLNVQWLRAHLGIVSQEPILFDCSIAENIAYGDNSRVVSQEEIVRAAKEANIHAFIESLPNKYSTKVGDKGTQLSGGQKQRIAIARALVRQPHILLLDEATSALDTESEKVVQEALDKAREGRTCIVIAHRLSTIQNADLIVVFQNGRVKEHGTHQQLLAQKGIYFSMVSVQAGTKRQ

Row | Compound | P-glycoprotein efflux substrate
1 | COc1cc2ncnc(Nc3cccc(Cl)c3F)c2cc1OC1CCN(C2COC2)CC1(F)F (racemic) [Compound 1, (R/S)—N-(3-chloro-2-fluorophenyl)-6-((3,3-difluoro-1-(oxetan-3-yl)piperidin-4-yl)oxy)-7-methoxyquinazolin-4-amine] | no
2 | COc1cc2ncnc(Nc3cccc(Cl)c3F)c2cc1O[C@@H]1CCN(C2COC2)CC1(F)F [Compound 11, (R)—N-(3-chloro-2-fluorophenyl)-6-((3,3-difluoro-1-(oxetan-3-yl)piperidin-4-yl)oxy)-7-methoxyquinazolin-4-amine] | no
3 | [2H]C([2H])([2H])Oc1cc2ncnc(Nc3ccc(F)c(C#C)c3F)c2cc1OC1CCN(C2COC2)CC1(F)F (racemic) [Compound 10, (R/S)-6-((3,3-difluoro-1-(oxetan-3-yl)piperidin-4-yl)oxy)-N-(3-ethynyl-2,4-difluorophenyl)-7-(methoxy-d3)quinazolin-4-amine] | no
4 | C#Cc1cccc(Nc2ncnc3cc(OC)c(O[C@H]4CCN(C5COC5)CC4(F)F)cc23)c1F [Compound 14, (S)-6-((3,3-difluoro-1-(oxetan-3-yl)piperidin-4-yl)oxy)-N-(3-ethynyl-2-fluorophenyl)-7-methoxyquinazolin-4-amine] | no
5 | C#Cc1c(F)ccc(Nc2ncnc3cc(OC)c(OC4CCN(C5COC5)CC4(F)F)cc23)c1F (racemic) [Compound 8, (R/S)-6-((3,3-difluoro-1-(oxetan-3-yl)piperidin-4-yl)oxy)-N-(3-ethynyl-2,4-difluorophenyl)-7-methoxyquinazolin-4-amine] | no
6 | [2H]C([2H])([2H])Oc1cc2ncnc(Nc3ccc(F)c(Cl)c3F)c2cc1OC1CCN(C2COC2)CC1(F)F (racemic) [Compound 9, (R/S)—N-(3-chloro-2,4-difluorophenyl)-6-((3,3-difluoro-1-(oxetan-3-yl)piperidin-4-yl)oxy)-7-(methoxy-d3)quinazolin-4-amine] | no
7 | COc1cc2ncnc(Nc3ccc(F)c(Cl)c3F)c2cc1OC1CCN(C2COC2)CC1(F)F (racemic) [Compound 7, (R/S)—N-(3-chloro-2,4-difluorophenyl)-6-((3,3-difluoro-1-(oxetan-3-yl)piperidin-4-yl)oxy)-7-methoxyquinazolin-4-amine] | no
8 | C#Cc1cccc(Nc2ncnc3cc(OC)c(OC4CCN(C)CC4(F)F)cc23)c1F (racemic) [Compound 6, (R/S)-6-((3,3-difluoro-1-methylpiperidin-4-yl)oxy)-N-(3-ethynyl-2-fluorophenyl)-7-methoxyquinazolin-4-amine] | no
9 | [2H]C([2H])([2H])Oc1cc2ncnc(Nc3cccc(Cl)c3F)c2cc1OC1CCN(C2COC2)CC1(F)F (racemic) [Compound 3, (R/S)—N-(3-chloro-2-fluorophenyl)-6-((3,3-difluoro-1-(oxetan-3-yl)piperidin-4-yl)oxy)-7-(methoxy-d3)quinazolin-4-amine] | no
10 | COc1cc2ncnc(Nc3cccc(Cl)c3F)c2cc1O[C@H]1CCN(C2COC2)CC1(F)F [Compound 13, (S)—N-(3-chloro-2-fluorophenyl)-6-((3,3-difluoro-1-(oxetan-3-yl)piperidin-4-yl)oxy)-7-methoxyquinazolin-4-amine] | no
11 | [2H]C([2H])([2H])Oc1cc2ncnc(Nc3cccc(C#C)c3F)c2cc1OC1CCN(C2COC2)CC1(F)F (racemic) [Compound 4, (R/S)-6-((3,3-difluoro-1-(oxetan-3-yl)piperidin-4-yl)oxy)-N-(3-ethynyl-2-fluorophenyl)-7-(methoxy-d3)quinazolin-4-amine] | no
12 | C#Cc1c(F)ccc(Nc2ncnc3cc(OC)c(OC4CCN(C)CC4(F)F)cc23)c1F (racemic) [Compound 5, (R/S)-6-((3,3-difluoro-1-methylpiperidin-4-yl)oxy)-N-(3-ethynyl-2,4-difluorophenyl)-7-methoxyquinazolin-4-amine] | no
13 | C#Cc1cccc(Nc2ncnc3cc(OC)c(O[C@@H]4CCN(C5COC5)CC4(F)F)cc23)c1F [Compound 12, (R)-6-((3,3-difluoro-1-(oxetan-3-yl)piperidin-4-yl)oxy)-N-(3-ethynyl-2-fluorophenyl)-7-methoxyquinazolin-4-amine] | no
14 | C#Cc1cccc(Nc2ncnc3cc(OC)c(OC4CCN(C5COC5)CC4(F)F)cc23)c1F (racemic) [Compound 2, (R/S)-6-((3,3-difluoro-1-(oxetan-3-yl)piperidin-4-yl)oxy)-N-(3-ethynyl-2-fluorophenyl)-7-methoxyquinazolin-4-amine] | no

Other lines, results leading:

Row | P-glycoprotein efflux substrate | Compound
15 | no | [2H]C([2H])([2H])Oc1cc2ncnc(Nc3ccc(F)c(Cl)c3F)c2cc1O[C@H]1CCN(C2COC2)CC1(F)F [Compound 29, (S)—N-(3-chloro-2,4-difluorophenyl)-6-((3,3-difluoro-1-(oxetan-3-yl)piperidin-4-yl)oxy)-7-(methoxy-d3)quinazolin-4-amine]
16 | no | [2H]C([2H])([2H])Oc1cc2ncnc(Nc3cccc(Cl)c3F)c2cc1O[C@H]1CCN(C2COC2)CC1(F)F [Compound 17, (S)—N-(3-chloro-2-fluorophenyl)-6-((3,3-difluoro-1-(oxetan-3-yl)piperidin-4-yl)oxy)-7-(methoxy-d3)quinazolin-4-amine]
17 | no | C#Cc1cccc(Nc2ncnc3cc(OC)c(O[C@H]4CCN(C)CC4(F)F)cc23)c1F [Compound 22, (S)-6-((3,3-difluoro-1-methylpiperidin-4-yl)oxy)-N-(3-ethynyl-2-fluorophenyl)-7-methoxyquinazolin-4-amine]
18 | no | [2H]C([2H])([2H])Oc1cc2ncnc(Nc3cccc(C#C)c3F)c2cc1O[C@@H]1CCN(C2COC2)CC1(F)F [Compound 16, (R)-6-((3,3-difluoro-1-(oxetan-3-yl)piperidin-4-yl)oxy)-N-(3-ethynyl-2-fluorophenyl)-7-(methoxy-d3)quinazolin-4-amine]
19 | no | C#Cc1c(F)ccc(Nc2ncnc3cc(OC)c(O[C@@H]4CCN(C)CC4(F)F)cc23)c1F [Compound 19, (R)-6-((3,3-difluoro-1-methylpiperidin-4-yl)oxy)-N-(3-ethynyl-2,4-difluorophenyl)-7-methoxyquinazolin-4-amine]
20 | no | [2H]C([2H])([2H])Oc1cc2ncnc(Nc3ccc(F)c(C#C)c3F)c2cc1O[C@@H]1CCN(C2COC2)CC1(F)F [Compound 28, (R)-6-((3,3-difluoro-1-(oxetan-3-yl)piperidin-4-yl)oxy)-N-(3-ethynyl-2,4-difluorophenyl)-7-(methoxy-d3)quinazolin-4-amine]
21 | no | [2H]C([2H])([2H])Oc1cc2ncnc(Nc3ccc(F)c(C#C)c3F)c2cc1O[C@H]1CCN(C2COC2)CC1(F)F [Compound 30, (S)-6-((3,3-difluoro-1-(oxetan-3-yl)piperidin-4-yl)oxy)-N-(3-ethynyl-2,4-difluorophenyl)-7-(methoxy-d3)quinazolin-4-amine]
22 | no | C#Cc1c(F)ccc(Nc2ncnc3cc(OC)c(O[C@H]4CCN(C5COC5)CC4(F)F)cc23)c1F [Compound 26, (S)-6-((3,3-difluoro-1-(oxetan-3-yl)piperidin-4-yl)oxy)-N-(3-ethynyl-2,4-difluorophenyl)-7-methoxyquinazolin-4-amine]
23 | no | C#Cc1c(F)ccc(Nc2ncnc3cc(OC)c(O[C@@H]4CCN(C5COC5)CC4(F)F)cc23)c1F [Compound 24, (R)-6-((3,3-difluoro-1-(oxetan-3-yl)piperidin-4-yl)oxy)-N-(3-ethynyl-2,4-difluorophenyl)-7-methoxyquinazolin-4-amine]
24 | no | COc1cc2ncnc(Nc3ccc(F)c(Cl)c3F)c2cc1O[C@@H]1CCN(C2COC2)CC1(F)F [Compound 23, (R)—N-(3-chloro-2,4-difluorophenyl)-6-((3,3-difluoro-1-(oxetan-3-yl)piperidin-4-yl)oxy)-7-methoxyquinazolin-4-amine]
25 | no | COc1cc2ncnc(Nc3ccc(F)c(Cl)c3F)c2cc1O[C@H]1CCN(C2COC2)CC1(F)F [Compound 25, (S)—N-(3-chloro-2,4-difluorophenyl)-6-((3,3-difluoro-1-(oxetan-3-yl)piperidin-4-yl)oxy)-7-methoxyquinazolin-4-amine]
26 | no | C#Cc1c(F)ccc(Nc2ncnc3cc(OC)c(O[C@H]4CCN(C)CC4(F)F)cc23)c1F [Compound 21, (S)-6-((3,3-difluoro-1-methylpiperidin-4-yl)oxy)-N-(3-ethynyl-2,4-difluorophenyl)-7-methoxyquinazolin-4-amine]
27 | no | C#Cc1cccc(Nc2ncnc3cc(OC)c(O[C@@H]4CCN(C)CC4(F)F)cc23)c1F [Compound 20, (R)-6-((3,3-difluoro-1-methylpiperidin-4-yl)oxy)-N-(3-ethynyl-2-fluorophenyl)-7-methoxyquinazolin-4-amine]
28 | no | [2H]C([2H])([2H])Oc1cc2ncnc(Nc3cccc(C#C)c3F)c2cc1O[C@H]1CCN(C2COC2)CC1(F)F [Compound 18, (S)-6-((3,3-difluoro-1-(oxetan-3-yl)piperidin-4-yl)oxy)-N-(3-ethynyl-2-fluorophenyl)-7-(methoxy-d3)quinazolin-4-amine]
29 | no | [2H]C([2H])([2H])Oc1cc2ncnc(Nc3cccc(Cl)c3F)c2cc1O[C@@H]1CCN(C2COC2)CC1(F)F [Compound 15, (R)—N-(3-chloro-2-fluorophenyl)-6-((3,3-difluoro-1-(oxetan-3-yl)piperidin-4-yl)oxy)-7-(methoxy-d3)quinazolin-4-amine]
30 | no | [2H]C([2H])([2H])Oc1cc2ncnc(Nc3ccc(F)c(Cl)c3F)c2cc1O[C@@H]1CCN(C2COC2)CC1(F)F [Compound 27, (R)—N-(3-chloro-2,4-difluorophenyl)-6-((3,3-difluoro-1-(oxetan-3-yl)piperidin-4-yl)oxy)-7-(methoxy-d3)quinazolin-4-amine]

The molecules below were run on PC-9 tumor cell (assay: CellTiter-Glo (CTG) cell viability assay, PC-9 tumor cell growth inhibition). Details: PC-9 cells.

Row | Compound | inhibiting PC-9 tumor cell growth compared with Iressa
31 | [2H]C([2H])([2H])Oc1cc2ncnc(Nc3cccc(Cl)c3F)c2cc1OC1CCN(C2COC2)CC1(F)F (racemic) [Compound 3, (R/S)—N-(3-chloro-2-fluorophenyl)-6-((3,3-difluoro-1-(oxetan-3-yl)piperidin-4-yl)oxy)-7-(methoxy-d3)quinazolin-4-amine] | more effective than Iressa
